Test results reported in the supplement of paper PMC3334620.
The full ranking holds about 33,000 sequences; the median of “E-score (-0.5 to 0.5)” is about -0.0034, and the highest 2% start at about 0.25. Some of the results follow.

Each sequence was assayed against T1, Yap3 (UniProt P38749) (assay: PBM E-score (8-mer binding enrichment) (E-score (-0.5 to 0.5)); higher = stronger / more preferred TF binding). Conditions: protein concentration: 100 nM; construct: GST-full length.
T1 sequence: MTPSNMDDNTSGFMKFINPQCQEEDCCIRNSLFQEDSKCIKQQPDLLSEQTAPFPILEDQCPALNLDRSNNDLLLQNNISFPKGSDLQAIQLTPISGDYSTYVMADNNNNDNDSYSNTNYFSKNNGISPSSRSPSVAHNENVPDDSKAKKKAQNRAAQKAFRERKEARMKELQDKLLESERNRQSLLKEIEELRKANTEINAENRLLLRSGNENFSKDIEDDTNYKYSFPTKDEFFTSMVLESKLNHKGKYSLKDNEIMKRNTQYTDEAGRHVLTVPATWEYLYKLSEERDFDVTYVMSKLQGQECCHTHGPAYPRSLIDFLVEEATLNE
Procedure: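 Universal 'all 10-mer' protein binding microarrays (Agilent AMADID 015681) probed with GST-tagged S. cerevisiae TFs (full-length or DBD) made by in vitro transcription/translation (PURExpress), about 100-200 nM. Bound TF was detected with fluorescent anti-GST. Each ungapped 8-mer (which stands for itself and its reverse complement) is scored by the PBM enrichment score (E-score), a modified Wilcoxon-Mann-Whitney statistic from -0.5 to +0.5, computed with the Universal PBM Analysis Suite. Scale: above 0.35 generally sequence-specific binding.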

Q: Which “PBM E-score” value does the source give for AAGCGCAG here?
A: -0.0347

Q: Which “PBM E-score” value does the source give for ACGTGTAA here?
A: 0.00157

Q: Which “PBM E-score” value does the source give for ATATTCGA here?
A: 0.0689

Q: With ATTATTTA as the sequence, how does the “PBM E-score” value read?
A: 0.289

Q: Which “PBM E-score” value does the source give for TCTCTCCA here?
A: -0.00365

Q: TCCCAGAA was tested. Which “PBM E-score” value did it give?
A: -0.107

Q: With ACACTGTA as the sequence, how does the “PBM E-score” value read?
A: 0.124

Q: Which “PBM E-score” value does the source give for CCTTACTA here?
A: 0.281

Q: How did the “PBM E-score” value turn out when CCGTGTCA was run?
A: -0.0779

Q: For TCGACTAA, which “PBM E-score” value is on record?
A: 0.0735

Q: How did the “PBM E-score” value turn out when AAATGACA was run?
A: 0.208

Q: How did the “PBM E-score” value turn out when ATTCCTGA was run?
A: 0.0543

Q: Which “PBM E-score” value does the source give for CGCGGAGA here?
A: 0.075

Q: How did the “PBM E-score” value turn out when CTGCTACA was run?
A: 0.035

Q: How did the “PBM E-score” value turn out when CCCCCCCC was run?
A: -0.467

Q: With CCGGGGCC as the sequence, how does the “PBM E-score” value read?
A: -0.343

Q: With TCGAGACA as the sequence, how does the “PBM E-score” value read?
A: -0.0118

Q: CCCTGGGC was tested. Which “PBM E-score” value did it give?
A: -0.358

Q: Which “PBM E-score” value does the source give for CAAACTTC here?
A: 0.137

Q: AGGTACTA was tested. Which “PBM E-score” value did it give?
A: 0.132

Q: For CACTTAGC, which “PBM E-score” value is on record?
A: 0.00252

Q: With ACTTGTGG as the sequence, how does the “PBM E-score” value read?
A: -0.0694

Q: AAATTTTC was tested. Which “PBM E-score” value did it give?
A: 0.047

Q: With CCTGTTCA as the sequence, how does the “PBM E-score” value read?
A: -0.08

Q: How did the “PBM E-score” value turn out when AATTAATG was run?
A: 0.29

Q: How did the “PBM E-score” value turn out when CATGACTA was run?
A: 0.126

Q: With ACCTATCC as the sequence, how does the “PBM E-score” value read?
A: 0.0757

Q: AAGGATCG was tested. Which “PBM E-score” value did it give?
A: 0.0628

Q: CCCACAAG was tested. Which “PBM E-score” value did it give?
A: 0.0125

Q: CAAGGAGC was tested. Which “PBM E-score” value did it give?
A: -0.108

Q: For GAGCTGGC, which “PBM E-score” value is on record?
A: -0.11

Q: For GAATGAGC, which “PBM E-score” value is on record?
A: 0.0439

Q: With GAGGACGC as the sequence, how does the “PBM E-score” value read?
A: -0.1

Q: Which “PBM E-score” value does the source give for CCGTAGTC here?
A: -0.148

Q: How did the “PBM E-score” value turn out when CGTCCAGC was run?
A: -0.211

Q: How did the “PBM E-score” value turn out when GCATGAGC was run?
A: -0.00227

Q: For ACACAGGA, which “PBM E-score” value is on record?
A: -0.0593

Q: Which “PBM E-score” value does the source give for AAACGACC here?
A: 0.0558

Q: How did the “PBM E-score” value turn out when AAACCTCA was run?
A: 0.0879

Q: For ATTGTGGC, which “PBM E-score” value is on record?
A: 0.0693

Q: How did the “PBM E-score” value turn out when CACCCCCC was run?
A: -0.371

Q: CCCCGGTA was tested. Which “PBM E-score” value did it give?
A: -0.332

Q: With ACGGAGTC as the sequence, how does the “PBM E-score” value read?
A: -0.0179

Q: How did the “PBM E-score” value turn out when AGTATCCG was run?
A: 0.1

Q: With ATATCCGA as the sequence, how does the “PBM E-score” value read?
A: 0.241

Q: Which “PBM E-score” value does the source give for AAAACAGC here?
A: 0.177

Q: Which “PBM E-score” value does the source give for GTCCGATA here?
A: -0.205

Q: For CACGGACC, which “PBM E-score” value is on record?
A: -0.129

Q: How did the “PBM E-score” value turn out when AACCCTAG was run?
A: 0.0242

Q: For TGTCGCAA, which “PBM E-score” value is on record?
A: 0.0339

Q: For AATCATGG, which “PBM E-score” value is on record?
A: 0.127

Q: ATTTAAGG was tested. Which “PBM E-score” value did it give?
A: 0.0621

Q: For TGAGGGAA, which “PBM E-score” value is on record?
A: -0.0685

Q: With AACGTCTC as the sequence, how does the “PBM E-score” value read?
A: -0.0711

Q: How did the “PBM E-score” value turn out when CTACGCTA was run?
A: -0.0909

Q: How did the “PBM E-score” value turn out when AGCAGGCC was run?
A: -0.183

Q: Which “PBM E-score” value does the source give for AATAGTCA here?
A: -0.00331

Q: Which “PBM E-score” value does the source give for GCTCCAAA here?
A: -0.217

Q: Which “PBM E-score” value does the source give for ATTAATAA here?
A: 0.405

Q: How did the “PBM E-score” value turn out when ATCTCCGG was run?
A: 0.0147

Q: Which “PBM E-score” value does the source give for AACGAGCA here?
A: -0.0339

Q: Which “PBM E-score” value does the source give for ATCCTATG here?
A: 0.0128

Q: For AATGAGGT, which “PBM E-score” value is on record?
A: 0.175

Q: How did the “PBM E-score” value turn out when CCCTACAC was run?
A: -0.0394

Q: For CGTCATCA, which “PBM E-score” value is on record?
A: 0.181

Q: Which “PBM E-score” value does the source give for TACACGTA here?
A: 0.121

Q: CTAGTCTC was tested. Which “PBM E-score” value did it give?
A: -0.191

Q: With ATAATAGC as the sequence, how does the “PBM E-score” value read?
A: 0.0686

Q: For CAACGCAC, which “PBM E-score” value is on record?
A: 0.0337

Q: For GGAGGATA, which “PBM E-score” value is on record?
A: -0.00306

Q: Which “PBM E-score” value does the source give for ATCTCGAA here?
A: 0.00282

Q: For ATTTCTGG, which “PBM E-score” value is on record?
A: 0.141

Q: Which “PBM E-score” value does the source give for CTGTGAGC here?
A: -0.1

Q: ATTAGTGG was tested. Which “PBM E-score” value did it give?
A: 0.243

Q: How did the “PBM E-score” value turn out when AAGTTAAG was run?
A: -0.00518

Q: How did the “PBM E-score” value turn out when ACCGTTTA was run?
A: 0.0792

Q: With AGCGCTAA as the sequence, how does the “PBM E-score” value read?
A: 0.132

Q: CTCTATAC was tested. Which “PBM E-score” value did it give?
A: -0.129

Q: With CAATCCCC as the sequence, how does the “PBM E-score” value read?
A: -0.118

Q: Which “PBM E-score” value does the source give for AGACCTAA here?
A: -0.0638

Q: TAATACGA was tested. Which “PBM E-score” value did it give?
A: 0.0909

Q: Which “PBM E-score” value does the source give for TCTAGAAA here?
A: 0.0342

Q: Which “PBM E-score” value does the source give for CAACTGTG here?
A: 0.0583

Q: With AGGGGGCG as the sequence, how does the “PBM E-score” value read?
A: -0.288

Q: How did the “PBM E-score” value turn out when AGTCTACA was run?
A: -0.159

Q: How did the “PBM E-score” value turn out when CATGCCGA was run?
A: 0.135

Q: CATTAGGC was tested. Which “PBM E-score” value did it give?
A: -0.186

Q: How did the “PBM E-score” value turn out when ATACTCAA was run?
A: 0.0765

Q: With CTCCAACA as the sequence, how does the “PBM E-score” value read?
A: 0.141

Q: How did the “PBM E-score” value turn out when CATACGAC was run?
A: 0.0835

Q: How did the “PBM E-score” value turn out when AGTTCAAC was run?
A: 0.145

Q: For AGCGTGAG, which “PBM E-score” value is on record?
A: -0.122

Q: How did the “PBM E-score” value turn out when AATTCGCT was run?
A: 0.289

Q: For ATGCAGTG, which “PBM E-score” value is on record?
A: 0.0567
